Results: PubChem BioAssay AID2685 (National Center for Advancing Translational Sciences (NCATS), 2010)
Some of the results follow. Further columns of the screen follow, without active or inactive calls. The list favours compounds with an active or inconclusive main result. The note in brackets gives the kind of curve behind each potency; many fits are weak. Where a SMILES comes first, the peptide text is derived from it. The star is where a group is joined. Boc = CC(C)(C)OC(=O)*

Test: qHTS Assay for Lipid Storage Modulators in Drosophila S3 Cells;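 as to cell number change: cells counted by Cell Tracker Red CMTPX staining in the red channel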
Conditions: BODIPY lipid droplet fluorescence, 18-24 h; for cell number change: measured here: cell count max response, cells fed with added oleic acid
How it was run: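 Laser-scanning cytometry quantifies lipid droplet accumulation (500–530 nm total intensity; droplet/cell object ratio) in oleic acid-fed (400 uM added) Drosophila S3 cells treated with a concentration series. 20 uM Triacsin C defined 100% inhibition.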

[1] = measured here: cell number channel AC50, cells fed with added oleic acid
[2] = measured here: lipid fluorescence (Fed channel) AC50, cells fed with added oleic acid

Question: For `O=C(c1n[nH]c2ccccc12)N1CCN(c2ccc(F)cc2)CC1`, which AC50 [1] is on record?
Answer: The AC50 was 6.51 µM [rising, single point].

Question: Which cell number change does the source give for `Cc1ccc(Cn2c(=O)c3ccccc3n3c(SCC(=O)N4CCCCC4C)nnc23)cc1` (centres undefined) here?
Answer: The cell number change was -8.99%.

Question: And the AC50 [2]?
Answer: Its AC50 is 29.1 µM [rising, single point].

Question: With `COC(=O)c1ccc(CSc2nnc(-c3ccncc3)n2Cc2ccccc2)o1` as the compound, how does the cell number change read?
Answer: The cell number change was -1.4%.

Question: And the AC50 [2]?
Answer: Its AC50 is 0.00461 µM [rising, full curve, poor fit].

Question: With `CCCCCCC(=O)N(O)C1CC(=O)N(c2ccc(Br)cc2)C1=O` (centres undefined) as the compound, how does the cell number change read?
Answer: Its cell number change is -4.81%.

Question: Which results are given for `COC(=O)c1c(-c2ccccc2)noc1C`?
Answer: cell number change: 14.3%; AC50 [2]: 16.4 µM [rising, single point]

Question: With `O=C(c1ccco1)N1CCCC(c2nc3c(nnn3Cc3ccc(Cl)cc3Cl)c(=O)[nH]2)C1` (centres undefined) as the compound, how does the cell number change read?
Answer: The cell number change was 22.1%.

Question: Which results are given for `COc1ccccc1/C=C1/C(=O)N(c2ccc([N+](=O)[O-])cc2)N=C1C`?
Answer: cell number change: 14.2%; AC50 [2]: 29.1 µM [rising, single point]

Question: Which cell number change does the source give for `COc1ccc(NC(=O)Nc2ccccc2)cc1S(=O)(=O)N1CCCCC1` here?
Answer: The cell number change was 7.33%.

Question: What about the AC50 [2] of the same compound?
Answer: The AC50 was 0.58 µM [rising, single point].

Question: For `CC(C)CC(NC(=O)OC(C)(C)C)C(=O)NC(C(=O)N1CCCC1C(N)=O)C(C)C` (stereo not drawn) (Boc-Leu-Val-Pro-NH2; configuration not given here), which AC50 [2] is on record?
Answer: The AC50 was 0.58 µM [falling, single point].

Question: With `Cc1cc(=O)oc2cc(OCC(=O)OCC(=O)Nc3c(C)n(C)n(-c4ccccc4)c3=O)ccc12` as the compound, how does the cell number change read?
Answer: Its cell number change is -48.1%.

Question: And the AC50 [1]?
Answer: The AC50 was 0.461 µM [falling, full curve].

Question: For `CN1CCN(C(=O)/C(=C/c2cn(S(=O)(=O)N(C)C)c3ccccc23)NC(=O)c2ccccc2F)CC1`, which cell number change is on record?
Answer: The cell number change was -14.7%.

Question: Which results are given for `O=C(COC(=O)COc1ccccc1)Nc1ccc(Cl)cn1`?
Answer: cell number change: -32.4%; AC50 [1]: 0.411 µM [falling, partial curve, poor fit]; AC50 [2]: 1.46 µM [falling, partial curve, poor fit]

Question: With `Cc1nn(C)cc1N1C(=O)c2cccc3c(N)ccc(c23)C1=O` as the compound, how does the cell number change read?
Answer: Its cell number change is -98.8%.

Question: What about the AC50 [1] of the same compound?
Answer: The AC50 was 18.4 µM [falling, single point].

Question: What about the AC50 [2] of the same compound?
Answer: Its AC50 is 20.6 µM [falling, partial curve].

Question: Which cell number change does the source give for `Cc1ccc(Cn2nc(C)c(NC(=O)C3(C)CC3(Br)Br)c2C)cc1` (centres undefined) here?
Answer: Its cell number change is -61.9%.

Question: What about the AC50 [1] of the same compound?
Answer: Its AC50 is 5.8 µM [falling, partial curve].

Question: And the AC50 [2]?
Answer: Its AC50 is 4.11 µM [falling, partial curve].

Question: Which cell number change does the source give for `CCOC(=O)N(C)S(=O)(=O)c1ccccc1[N+](=O)[O-]` here?
Answer: The cell number change was 37.5%.

Question: And the AC50 [1]?
Answer: Its AC50 is 16.4 µM [rising, single point].

Question: For `CCC(C)C(NC(=O)OCc1ccccc1)C(=O)OCN1C(=O)c2ccccc2C1=O` (centres undefined), which cell number change is on record?
Answer: The cell number change was 2.69%.
